One molecule from patent US12410245 (UNIVERSITY OF VIRGINIA PATENT FOUNDATION, dated 2025) can be followed below.

By UniProt entry, the sequences of proteins in these tests, tags left out. Where a name states a change or a piece, a line headed by the entry shows the natural chain unless it says otherwise. Chains listed by the source or under a name are the forms on record and can include a tag or linker. Residues count along the entry.
UniProt P11276, residues 33-2477: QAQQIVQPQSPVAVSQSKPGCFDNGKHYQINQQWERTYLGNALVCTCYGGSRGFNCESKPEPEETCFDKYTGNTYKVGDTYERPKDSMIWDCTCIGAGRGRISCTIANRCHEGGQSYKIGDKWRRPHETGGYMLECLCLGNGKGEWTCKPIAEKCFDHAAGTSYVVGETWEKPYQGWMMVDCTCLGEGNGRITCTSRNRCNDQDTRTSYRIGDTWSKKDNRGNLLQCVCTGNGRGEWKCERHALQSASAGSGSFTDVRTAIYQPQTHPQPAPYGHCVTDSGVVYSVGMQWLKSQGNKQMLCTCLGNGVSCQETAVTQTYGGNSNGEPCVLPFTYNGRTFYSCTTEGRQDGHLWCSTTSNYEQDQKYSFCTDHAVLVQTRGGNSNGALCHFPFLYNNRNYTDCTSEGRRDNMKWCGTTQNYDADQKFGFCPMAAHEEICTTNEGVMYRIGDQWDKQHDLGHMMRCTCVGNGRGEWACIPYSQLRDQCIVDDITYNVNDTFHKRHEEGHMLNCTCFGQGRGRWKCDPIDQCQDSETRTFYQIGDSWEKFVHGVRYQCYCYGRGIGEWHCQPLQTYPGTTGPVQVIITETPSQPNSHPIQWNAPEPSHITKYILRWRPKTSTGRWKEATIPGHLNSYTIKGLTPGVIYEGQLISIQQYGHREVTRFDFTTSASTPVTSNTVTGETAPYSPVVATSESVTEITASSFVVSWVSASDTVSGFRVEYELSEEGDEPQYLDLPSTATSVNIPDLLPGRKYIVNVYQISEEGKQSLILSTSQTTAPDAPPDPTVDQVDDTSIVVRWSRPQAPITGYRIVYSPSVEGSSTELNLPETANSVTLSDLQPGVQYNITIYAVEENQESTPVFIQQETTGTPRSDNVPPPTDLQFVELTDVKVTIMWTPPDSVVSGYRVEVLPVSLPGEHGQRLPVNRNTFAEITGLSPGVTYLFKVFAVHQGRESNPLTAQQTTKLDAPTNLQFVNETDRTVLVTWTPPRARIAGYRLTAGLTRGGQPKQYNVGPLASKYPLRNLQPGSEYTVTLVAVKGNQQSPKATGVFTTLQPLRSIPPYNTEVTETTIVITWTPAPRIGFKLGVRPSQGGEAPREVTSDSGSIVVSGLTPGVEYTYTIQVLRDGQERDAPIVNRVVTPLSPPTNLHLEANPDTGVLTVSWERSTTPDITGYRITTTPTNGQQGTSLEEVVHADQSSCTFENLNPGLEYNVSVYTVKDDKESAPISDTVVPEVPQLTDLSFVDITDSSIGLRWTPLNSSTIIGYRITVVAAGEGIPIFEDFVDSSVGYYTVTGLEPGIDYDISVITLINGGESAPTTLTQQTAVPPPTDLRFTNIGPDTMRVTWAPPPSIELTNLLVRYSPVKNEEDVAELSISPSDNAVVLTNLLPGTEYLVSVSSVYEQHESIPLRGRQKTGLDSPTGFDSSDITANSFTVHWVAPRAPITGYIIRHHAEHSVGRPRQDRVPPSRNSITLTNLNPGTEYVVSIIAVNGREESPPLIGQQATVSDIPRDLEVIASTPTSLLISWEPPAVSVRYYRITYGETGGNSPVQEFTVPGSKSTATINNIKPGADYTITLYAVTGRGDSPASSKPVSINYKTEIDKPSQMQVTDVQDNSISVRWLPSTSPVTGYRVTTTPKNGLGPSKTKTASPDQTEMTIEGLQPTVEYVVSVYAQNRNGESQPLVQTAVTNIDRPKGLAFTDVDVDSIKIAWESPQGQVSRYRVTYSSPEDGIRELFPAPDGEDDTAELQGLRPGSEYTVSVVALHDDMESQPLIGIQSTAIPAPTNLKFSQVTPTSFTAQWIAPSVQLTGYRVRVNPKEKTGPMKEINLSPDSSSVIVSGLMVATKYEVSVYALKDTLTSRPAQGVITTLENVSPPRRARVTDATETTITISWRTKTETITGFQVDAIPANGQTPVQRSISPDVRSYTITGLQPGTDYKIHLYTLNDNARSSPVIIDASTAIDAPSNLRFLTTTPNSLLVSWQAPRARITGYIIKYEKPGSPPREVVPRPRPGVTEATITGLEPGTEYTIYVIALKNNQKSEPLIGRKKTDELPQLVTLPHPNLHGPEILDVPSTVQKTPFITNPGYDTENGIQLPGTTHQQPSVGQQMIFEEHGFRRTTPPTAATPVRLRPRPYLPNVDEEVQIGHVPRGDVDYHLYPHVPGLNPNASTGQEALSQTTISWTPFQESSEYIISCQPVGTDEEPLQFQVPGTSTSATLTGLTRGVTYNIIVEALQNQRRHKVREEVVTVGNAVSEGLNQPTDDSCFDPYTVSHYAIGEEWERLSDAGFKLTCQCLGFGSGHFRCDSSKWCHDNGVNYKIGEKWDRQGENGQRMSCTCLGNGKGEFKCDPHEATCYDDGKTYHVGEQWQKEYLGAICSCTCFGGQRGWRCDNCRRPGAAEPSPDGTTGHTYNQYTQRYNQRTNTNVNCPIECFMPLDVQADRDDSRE
UniProt P02769, residues 25-607: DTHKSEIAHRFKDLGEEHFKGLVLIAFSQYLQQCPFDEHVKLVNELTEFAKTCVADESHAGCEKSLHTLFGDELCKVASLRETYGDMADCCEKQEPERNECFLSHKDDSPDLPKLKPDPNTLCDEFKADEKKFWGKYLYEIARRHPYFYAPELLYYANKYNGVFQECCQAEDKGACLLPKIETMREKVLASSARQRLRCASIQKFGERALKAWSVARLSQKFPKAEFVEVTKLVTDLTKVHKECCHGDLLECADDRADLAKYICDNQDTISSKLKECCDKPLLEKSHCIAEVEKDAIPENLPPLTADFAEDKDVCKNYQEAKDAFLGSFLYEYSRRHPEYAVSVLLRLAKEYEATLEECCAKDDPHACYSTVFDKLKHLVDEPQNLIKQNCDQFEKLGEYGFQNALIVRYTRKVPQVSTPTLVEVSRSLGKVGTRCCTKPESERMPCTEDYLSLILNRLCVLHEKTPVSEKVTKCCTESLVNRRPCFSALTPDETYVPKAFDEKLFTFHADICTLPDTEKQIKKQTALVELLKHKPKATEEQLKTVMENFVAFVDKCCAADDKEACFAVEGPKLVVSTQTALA
FnIII6-9 (P02751-1, form named): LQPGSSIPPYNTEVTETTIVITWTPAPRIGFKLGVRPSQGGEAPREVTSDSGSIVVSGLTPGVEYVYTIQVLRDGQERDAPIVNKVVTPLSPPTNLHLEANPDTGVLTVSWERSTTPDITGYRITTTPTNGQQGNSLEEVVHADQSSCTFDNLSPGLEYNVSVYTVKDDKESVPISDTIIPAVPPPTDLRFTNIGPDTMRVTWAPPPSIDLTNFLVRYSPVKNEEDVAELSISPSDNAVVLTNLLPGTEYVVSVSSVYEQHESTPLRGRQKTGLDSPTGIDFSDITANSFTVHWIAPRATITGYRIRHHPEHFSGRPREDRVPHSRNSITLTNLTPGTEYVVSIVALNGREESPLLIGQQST

In test [1] the target is fibrillar fibronectin in mouse tissue (lung sections, postnatal retina) (mouse) (UniProt P11276). Kind of test: immunofluorescence on frozen mouse lung tissue sections.
The next test has as its target BSA (bovine) (UniProt P02769). Kind of test: ELISA of H5 on plates coated with the protein. For orientation: An ELISA detects its analyte on a solid surface through an enzyme-linked reagent.
Test [2] addresses fibrillar fibronectin in mouse tissue (lung sections, postnatal retina) (mouse) (UniProt P11276). Kind of test: whole mount immunostaining of postnatal mouse retina.
The target in a further test is T1, FnIII6-9 (UniProt P02751-1 1085-1446, limits assumed).
T1 construct: domain: FnIII6-9; also called FnIII9 (FnIII6-9); Fn fragment including the 9th type III repeat
Briefly: SPR, Fn fragments immobilized. On the technique in general: In SPR one partner is held on a chip, and binding of the other changes the refractive index at the surface.

These are yes or no findings as the source states them, for the method shown. Some entries that bind do so weakly or less than the wild type.

B1: H5 scFv (scFv)
scFv: EVQLLESGGGLVQPGGSLRLSCAASGFTFSSYAMSWVRQAPGKGLEWVSDIYDGGGTNYADSVKGRFTTSRDNSKNTLYLQMNSLRAEDTAVYYCAKTADNFDYWGQGTLVTVSSGGGGSGGGGSGGGGSTDIQMTQSPSSLSASVGDRVTITCRASQSISSYLNWYQQKPGKAPKLLIYAASTLQSGVPSRFSGSGSGTDFTLTISSLQPEDFATYYCQQANSAPTTFGQGTKVEIKRAAA
notes: Soluble scFv from E. coli, purified by Protein-A; also called clone H5; H5 antibody
On to B1, for which the binding result is “binds” in test [1], “no binding (tested: 1 µg coating protein)” in the test with BSA (bovine), “binds” in test [2] and “binds” in the test with FnIII6-9.
